# Source: article PMC7819943, “Rice protein-binding microarrays: a tool to detect cis-acting elements near promoter regions in rice”
# This is one part of the list.
# Target: T1, OsSMF1 (Oryza sativa, UniProt Q6ZLB0 1-436)
# T1 sequence: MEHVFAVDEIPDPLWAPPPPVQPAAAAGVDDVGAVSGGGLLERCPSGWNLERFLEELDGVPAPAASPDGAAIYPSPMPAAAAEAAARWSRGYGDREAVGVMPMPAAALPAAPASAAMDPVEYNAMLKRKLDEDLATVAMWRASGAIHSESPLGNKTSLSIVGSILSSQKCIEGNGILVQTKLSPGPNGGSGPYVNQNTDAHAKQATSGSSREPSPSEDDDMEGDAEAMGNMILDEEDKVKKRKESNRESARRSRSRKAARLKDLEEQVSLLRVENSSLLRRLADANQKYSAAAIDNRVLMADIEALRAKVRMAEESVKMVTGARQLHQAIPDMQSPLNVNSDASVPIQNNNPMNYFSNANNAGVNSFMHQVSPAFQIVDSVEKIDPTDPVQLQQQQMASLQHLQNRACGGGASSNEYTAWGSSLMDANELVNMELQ
# Test: protein-binding microarray (RPBM); PBS, 2% BSA, 51.3 ng/ul salmon testes DNA, 50 uM zinc acetate, 200 nM TF, 25 C, 1 h; high values mean tight binding
# Details: protein: recombinant; tags: N-terminal polyhistidine and DsRed monomer fusion (pET32a); chain copies: 2; label: CyDye5-dUTP incorporated in the synthesized complementary strand; 3' TTTTT single-stranded linker to array surface; dsDNA, one strand shown
# Method in brief: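 A custom Agilent array was converted to double-stranded form by primer extension with Cy5-dUTP and blocked with 2% BSA. Protein at 200 nM in PBS with 2% BSA, salmon testes DNA and 50 µM zinc acetate was applied for 1 h at 25 °C, followed by washing. The proteins were polyhistidine–DsRed N-terminal fusions of transcription factors, expressed in E. coli BL21-CodonPlus and Ni–NTA-purified. The binding signal is per-feature fluorescence intensity (arbitrary units) from an Axon 4000B scanner.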
row,Sequence,binding signal
1,AGCTGGACAAGATCGGAATAGTAGGCCAGGCCCAAAGCAACGGAGTCACCTAGTGCAG,49400 fluorescence intensity (a.u.)
2,CGAGTGACGGGTACGTGGATGATGAGGTGGTGACTGGTGACGGAGTCACCTAGTGCAG,6470 fluorescence intensity (a.u.)
3,TATGAAATGAAGTGGCGGCTCTGCATCCGCTAACGACGCCCGGAGTCACCTAGTGCAG,3720 fluorescence intensity (a.u.)
4,GTAGGCTAGCGATCCATGACACGGTGGCCCGAGCAGAGGCCGGAGTCACCTAGTGCAG,3690 fluorescence intensity (a.u.)
5,GATGCACTTCAGCACTTCGCAATCGATGACTAGATCAAACCGGAGTCACCTAGTGCAG,4020 fluorescence intensity (a.u.)
6,TTGTGCTTTTCAGTTTCCACTTTCCAGCATGGATTTGCGCCGGAGTCACCTAGTGCAG,3380 fluorescence intensity (a.u.)
7,TAACATAAAGACAGTGATGAGCTGGGCAAAGGTCACCGGTCGGAGTCACCTAGTGCAG,3140 fluorescence intensity (a.u.)
8,AGAAATTAAATTTAATCAGCACAGATCAACACACGTAAGTCGGAGTCACCTAGTGCAG,3250 fluorescence intensity (a.u.)
9,GTCTATTCTACCAGACCACATCCTGTCCACGTCACTCGTTCGGAGTCACCTAGTGCAG,30400 fluorescence intensity (a.u.)
10,TTTGTGTTTCAGCTCGGTGACACCAACCACGTATGTGCTACGGAGTCACCTAGTGCAG,5120 fluorescence intensity (a.u.)
11,AGTTTGTTAAACCGTGGATTGACTCATGACTTATCTACTACGGAGTCACCTAGTGCAG,6460 fluorescence intensity (a.u.)
12,GGCATCACTCACAATAATTCTTTAGGGCCCGATGTAGCACCGGAGTCACCTAGTGCAG,28000 fluorescence intensity (a.u.)
13,GATGTATGTGAGCCACAACTTTGCAAGTGGTGGACGAGCCCGGAGTCACCTAGTGCAG,3730 fluorescence intensity (a.u.)
14,CACATTAACCTATTATTTACAGGTATAAACAAACATACTACGGAGTCACCTAGTGCAG,25000 fluorescence intensity (a.u.)
15,GATCAAAATATCAAAAGCTTGACTAATTTTATCCAAAACACGGAGTCACCTAGTGCAG,18900 fluorescence intensity (a.u.)
16,GAGATAGATCAAAGCGGTGAGTTGCATGACTCATGTTCGACGGAGTCACCTAGTGCAG,8610 fluorescence intensity (a.u.)
17,GATCATGATGTCGTCGTGGATATATACCTTACCATGGATACGGAGTCACCTAGTGCAG,3290 fluorescence intensity (a.u.)
18,CGATGAGCACCGCAGCGATTGACATATTGCAATATCGTTCCGGAGTCACCTAGTGCAG,3550 fluorescence intensity (a.u.)
19,GCCGCCGCCACCGCCGCCGCAGCCTCCTCTCGCTCCGCCTCGGAGTCACCTAGTGCAG,18300 fluorescence intensity (a.u.)
20,TGCCTGCATGTCCACCGCCGGCACTAGCAGCCACGCTCGCCGGAGTCACCTAGTGCAG,3310 fluorescence intensity (a.u.)
21,AGATTCCTGTCATGTGTCCAATTAAGGCTTTGTTCATCGTCGGAGTCACCTAGTGCAG,3240 fluorescence intensity (a.u.)

row,Sequence,binding signal
1,TGGCATTGAAGTAGCCCGCCATCGCCAGCTCGATCTCCGACGGAGTCACCTAGTGCAG,3350 fluorescence intensity (a.u.)
2,ATCGTGTTGCATAATTTGGCAAAGGGTGACAATGGTTCTTCGGAGTCACCTAGTGCAG,4040 fluorescence intensity (a.u.)
3,CAAGGGAGCTGGTAACACTCATCATTTCCGTTCTTCAAATCGGAGTCACCTAGTGCAG,3250 fluorescence intensity (a.u.)
4,TCATTACATCCGTCACGGATGACGGATGACATATTATCCACGGAGTCACCTAGTGCAG,4600 fluorescence intensity (a.u.)
5,CCATCTGTAGTATAGTATGTCTACACACACACACACACACCGGAGTCACCTAGTGCAG,3720 fluorescence intensity (a.u.)
6,AGCGTGCAGAATCTAGTTATAGTCAGCTTGTTATGCATCCCGGAGTCACCTAGTGCAG,26900 fluorescence intensity (a.u.)
7,TTAACTTGGAATAGCCATACAGCCTTGCCAGCAATTGCATCGGAGTCACCTAGTGCAG,3950 fluorescence intensity (a.u.)
8,CTGAGATACTCGCCATCTGATTTCCTAGGCGAGATGGCGTCGGAGTCACCTAGTGCAG,21200 fluorescence intensity (a.u.)
9,ACGCTCACACATGCACACTCACAACCCTATAAACACCTCTCGGAGTCACCTAGTGCAG,4250 fluorescence intensity (a.u.)
10,TTTGGTTTCTTAATTCTGAGTCCTTTCTTTCGTCACACTCCGGAGTCACCTAGTGCAG,3240 fluorescence intensity (a.u.)
11,CCAAACTGAAAGTACTTTATGTCATATTGTCATGGGCTTACGGAGTCACCTAGTGCAG,5040 fluorescence intensity (a.u.)
12,AAGCGCAGGCACGCCACGCGTCGTCACTCGTCACGGTGCCCGGAGTCACCTAGTGCAG,5750 fluorescence intensity (a.u.)
13,TGGATGGAATTGGGACATATTTCTACCTTTCCCTATCTTTCGGAGTCACCTAGTGCAG,28200 fluorescence intensity (a.u.)
14,TTTGGGCGTAGTCATGCTGAGTAAGCATGAAAGAGTAAGCCGGAGTCACCTAGTGCAG,3240 fluorescence intensity (a.u.)
15,AAGCGATCGGGGCGGCGGAGGAGGTGGGTGGGAGGGAGGGCGGAGTCACCTAGTGCAG,7690 fluorescence intensity (a.u.)
16,ATACGCTAAGCATCCTATCGCAAGTTCGAAGCACCTTTGCCGGAGTCACCTAGTGCAG,3580 fluorescence intensity (a.u.)
17,GTGGGATGACGGGACGTGGGCTGGGGTTGGCCTGGGCTGACGGAGTCACCTAGTGCAG,3520 fluorescence intensity (a.u.)
18,GGTGTGGAGGGGTTGGACCAGAGCACGACGACGGCGAGGACGGAGTCACCTAGTGCAG,45100 fluorescence intensity (a.u.)
19,AGAAAAGAAAAGAAAAGAAATTGACGTCACCATTTGTCCCCGGAGTCACCTAGTGCAG,13400 fluorescence intensity (a.u.)
20,ATTATACTATAATTACTCCATCCGTACTCGTAATGACAATCGGAGTCACCTAGTGCAG,3180 fluorescence intensity (a.u.)
21,GGAAGAAGGGAGGTGAGGCTGACATATGGGGCCCACGTGACGGAGTCACCTAGTGCAG,3510 fluorescence intensity (a.u.)

# Some of the entries so far, as tab-separated lines:
row	Sequence	binding signal
2	ATCGTGTTGCATAATTTGGCAAAGGGTGACAATGGTTCTTCGGAGTCACCTAGTGCAG	4040 fluorescence intensity (a.u.)
10	TTTGGTTTCTTAATTCTGAGTCCTTTCTTTCGTCACACTCCGGAGTCACCTAGTGCAG	3240 fluorescence intensity (a.u.)
